Test results published in the supplement of paper PMC10849652.
This is one part of the list.

The chains behind the UniProt entries cited, without tags or fusion partners. Where a name states a change or a piece, a line headed by the entry shows the natural chain unless it says otherwise.
UniProt Q96JB1: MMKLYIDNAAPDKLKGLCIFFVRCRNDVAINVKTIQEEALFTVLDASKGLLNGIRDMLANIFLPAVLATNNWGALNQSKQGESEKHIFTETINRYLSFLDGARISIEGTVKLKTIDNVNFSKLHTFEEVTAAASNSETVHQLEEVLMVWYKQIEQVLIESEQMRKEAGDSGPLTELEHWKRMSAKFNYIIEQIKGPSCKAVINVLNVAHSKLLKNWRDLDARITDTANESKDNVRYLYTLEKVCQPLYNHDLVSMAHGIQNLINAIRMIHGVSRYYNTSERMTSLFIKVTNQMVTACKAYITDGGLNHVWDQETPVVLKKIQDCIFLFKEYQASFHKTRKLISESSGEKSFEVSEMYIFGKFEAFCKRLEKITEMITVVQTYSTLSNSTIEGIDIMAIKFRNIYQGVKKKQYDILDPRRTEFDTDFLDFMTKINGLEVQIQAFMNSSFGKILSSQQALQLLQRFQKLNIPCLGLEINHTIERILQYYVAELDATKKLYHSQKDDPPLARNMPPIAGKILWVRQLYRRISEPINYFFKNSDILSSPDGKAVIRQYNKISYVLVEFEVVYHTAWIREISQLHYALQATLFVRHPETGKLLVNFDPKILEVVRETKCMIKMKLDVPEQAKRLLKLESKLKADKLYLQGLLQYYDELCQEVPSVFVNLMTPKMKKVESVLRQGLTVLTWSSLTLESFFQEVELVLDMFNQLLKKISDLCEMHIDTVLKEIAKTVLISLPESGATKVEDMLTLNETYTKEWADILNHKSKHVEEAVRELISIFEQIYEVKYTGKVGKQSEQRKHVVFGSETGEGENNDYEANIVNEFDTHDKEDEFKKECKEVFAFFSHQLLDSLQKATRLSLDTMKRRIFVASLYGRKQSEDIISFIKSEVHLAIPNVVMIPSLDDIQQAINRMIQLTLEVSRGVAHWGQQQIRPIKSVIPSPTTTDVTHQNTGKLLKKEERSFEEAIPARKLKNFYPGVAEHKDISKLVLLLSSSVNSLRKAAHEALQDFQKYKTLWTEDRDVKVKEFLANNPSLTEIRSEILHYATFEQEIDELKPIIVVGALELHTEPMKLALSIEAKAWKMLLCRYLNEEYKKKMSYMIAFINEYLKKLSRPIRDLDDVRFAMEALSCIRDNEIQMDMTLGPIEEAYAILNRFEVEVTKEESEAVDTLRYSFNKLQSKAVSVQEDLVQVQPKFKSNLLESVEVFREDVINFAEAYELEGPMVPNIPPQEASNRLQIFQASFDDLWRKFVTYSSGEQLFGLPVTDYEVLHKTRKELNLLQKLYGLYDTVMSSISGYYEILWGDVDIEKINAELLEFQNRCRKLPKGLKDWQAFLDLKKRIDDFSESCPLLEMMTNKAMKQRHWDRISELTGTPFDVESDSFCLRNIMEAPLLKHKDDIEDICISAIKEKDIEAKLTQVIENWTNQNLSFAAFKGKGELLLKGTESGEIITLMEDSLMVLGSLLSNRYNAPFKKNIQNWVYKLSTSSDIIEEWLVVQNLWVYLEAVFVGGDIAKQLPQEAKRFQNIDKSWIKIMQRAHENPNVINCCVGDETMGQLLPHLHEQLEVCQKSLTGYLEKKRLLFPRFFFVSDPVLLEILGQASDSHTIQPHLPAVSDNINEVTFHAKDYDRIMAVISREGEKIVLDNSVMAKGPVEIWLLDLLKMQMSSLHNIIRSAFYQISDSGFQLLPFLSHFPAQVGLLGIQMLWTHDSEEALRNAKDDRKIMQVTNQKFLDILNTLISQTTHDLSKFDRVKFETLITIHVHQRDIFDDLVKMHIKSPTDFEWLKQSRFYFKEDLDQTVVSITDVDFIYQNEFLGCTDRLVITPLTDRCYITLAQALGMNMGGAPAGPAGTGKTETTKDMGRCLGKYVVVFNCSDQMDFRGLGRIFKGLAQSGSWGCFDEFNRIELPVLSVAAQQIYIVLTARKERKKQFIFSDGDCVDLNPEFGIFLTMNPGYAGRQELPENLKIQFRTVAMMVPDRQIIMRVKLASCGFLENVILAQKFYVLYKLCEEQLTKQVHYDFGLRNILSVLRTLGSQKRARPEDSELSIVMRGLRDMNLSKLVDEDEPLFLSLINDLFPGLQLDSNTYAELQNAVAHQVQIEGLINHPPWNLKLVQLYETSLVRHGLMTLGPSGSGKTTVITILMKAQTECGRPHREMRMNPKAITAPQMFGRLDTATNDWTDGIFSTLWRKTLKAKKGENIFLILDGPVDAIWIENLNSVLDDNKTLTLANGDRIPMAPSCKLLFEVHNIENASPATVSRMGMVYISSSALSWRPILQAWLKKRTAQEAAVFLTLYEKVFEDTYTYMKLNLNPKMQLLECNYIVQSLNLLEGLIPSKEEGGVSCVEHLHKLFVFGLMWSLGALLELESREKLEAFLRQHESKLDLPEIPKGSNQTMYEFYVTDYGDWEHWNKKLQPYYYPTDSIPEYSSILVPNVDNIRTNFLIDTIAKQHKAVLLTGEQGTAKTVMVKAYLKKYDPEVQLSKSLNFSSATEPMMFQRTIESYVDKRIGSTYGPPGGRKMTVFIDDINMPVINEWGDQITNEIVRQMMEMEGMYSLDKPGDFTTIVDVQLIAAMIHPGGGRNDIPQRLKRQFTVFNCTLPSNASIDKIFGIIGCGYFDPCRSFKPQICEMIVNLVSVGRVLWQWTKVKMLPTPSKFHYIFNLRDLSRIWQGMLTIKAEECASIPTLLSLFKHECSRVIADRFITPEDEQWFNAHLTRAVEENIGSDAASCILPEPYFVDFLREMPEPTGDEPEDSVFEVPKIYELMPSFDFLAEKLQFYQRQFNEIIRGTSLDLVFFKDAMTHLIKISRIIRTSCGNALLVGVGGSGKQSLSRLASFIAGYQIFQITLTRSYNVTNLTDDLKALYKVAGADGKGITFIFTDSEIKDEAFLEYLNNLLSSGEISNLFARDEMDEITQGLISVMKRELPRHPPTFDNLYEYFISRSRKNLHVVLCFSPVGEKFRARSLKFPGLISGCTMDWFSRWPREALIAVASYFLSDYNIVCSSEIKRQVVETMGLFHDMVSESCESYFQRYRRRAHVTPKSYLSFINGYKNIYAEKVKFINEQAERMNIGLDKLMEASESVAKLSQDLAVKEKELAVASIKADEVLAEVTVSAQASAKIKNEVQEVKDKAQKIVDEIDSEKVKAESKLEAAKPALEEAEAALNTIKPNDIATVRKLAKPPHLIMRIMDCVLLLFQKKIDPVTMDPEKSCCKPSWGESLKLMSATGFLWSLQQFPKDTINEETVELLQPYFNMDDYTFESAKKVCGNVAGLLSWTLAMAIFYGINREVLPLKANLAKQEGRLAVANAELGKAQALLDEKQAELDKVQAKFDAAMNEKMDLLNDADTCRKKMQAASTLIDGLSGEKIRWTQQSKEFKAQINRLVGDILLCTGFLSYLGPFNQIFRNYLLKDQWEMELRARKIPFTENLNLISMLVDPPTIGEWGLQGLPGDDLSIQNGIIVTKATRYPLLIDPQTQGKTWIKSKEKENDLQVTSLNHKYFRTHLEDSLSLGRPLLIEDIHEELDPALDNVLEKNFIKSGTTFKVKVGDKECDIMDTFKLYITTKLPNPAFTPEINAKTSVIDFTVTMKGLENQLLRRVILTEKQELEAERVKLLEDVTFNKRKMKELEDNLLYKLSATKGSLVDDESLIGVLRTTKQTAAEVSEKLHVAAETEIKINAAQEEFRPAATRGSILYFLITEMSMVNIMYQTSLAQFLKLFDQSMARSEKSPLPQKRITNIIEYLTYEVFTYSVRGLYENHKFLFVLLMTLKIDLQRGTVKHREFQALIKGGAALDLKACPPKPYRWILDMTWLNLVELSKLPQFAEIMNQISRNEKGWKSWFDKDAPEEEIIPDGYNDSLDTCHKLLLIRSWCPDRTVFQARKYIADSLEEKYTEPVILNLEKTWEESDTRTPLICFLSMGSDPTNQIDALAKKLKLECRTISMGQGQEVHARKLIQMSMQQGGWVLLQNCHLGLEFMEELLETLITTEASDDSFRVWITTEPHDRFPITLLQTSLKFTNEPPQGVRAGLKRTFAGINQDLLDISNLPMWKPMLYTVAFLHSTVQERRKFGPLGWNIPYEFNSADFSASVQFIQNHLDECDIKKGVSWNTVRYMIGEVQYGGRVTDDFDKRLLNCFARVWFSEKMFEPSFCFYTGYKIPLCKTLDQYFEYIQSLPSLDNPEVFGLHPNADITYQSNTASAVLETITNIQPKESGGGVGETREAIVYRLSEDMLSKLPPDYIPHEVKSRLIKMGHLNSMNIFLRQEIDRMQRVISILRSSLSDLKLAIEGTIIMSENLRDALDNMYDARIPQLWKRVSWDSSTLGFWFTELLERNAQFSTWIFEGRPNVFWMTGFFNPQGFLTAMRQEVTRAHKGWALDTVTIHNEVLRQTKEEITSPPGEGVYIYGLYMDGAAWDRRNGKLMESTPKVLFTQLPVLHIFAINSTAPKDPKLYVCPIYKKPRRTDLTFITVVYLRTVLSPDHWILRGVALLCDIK
UniProt Q92620: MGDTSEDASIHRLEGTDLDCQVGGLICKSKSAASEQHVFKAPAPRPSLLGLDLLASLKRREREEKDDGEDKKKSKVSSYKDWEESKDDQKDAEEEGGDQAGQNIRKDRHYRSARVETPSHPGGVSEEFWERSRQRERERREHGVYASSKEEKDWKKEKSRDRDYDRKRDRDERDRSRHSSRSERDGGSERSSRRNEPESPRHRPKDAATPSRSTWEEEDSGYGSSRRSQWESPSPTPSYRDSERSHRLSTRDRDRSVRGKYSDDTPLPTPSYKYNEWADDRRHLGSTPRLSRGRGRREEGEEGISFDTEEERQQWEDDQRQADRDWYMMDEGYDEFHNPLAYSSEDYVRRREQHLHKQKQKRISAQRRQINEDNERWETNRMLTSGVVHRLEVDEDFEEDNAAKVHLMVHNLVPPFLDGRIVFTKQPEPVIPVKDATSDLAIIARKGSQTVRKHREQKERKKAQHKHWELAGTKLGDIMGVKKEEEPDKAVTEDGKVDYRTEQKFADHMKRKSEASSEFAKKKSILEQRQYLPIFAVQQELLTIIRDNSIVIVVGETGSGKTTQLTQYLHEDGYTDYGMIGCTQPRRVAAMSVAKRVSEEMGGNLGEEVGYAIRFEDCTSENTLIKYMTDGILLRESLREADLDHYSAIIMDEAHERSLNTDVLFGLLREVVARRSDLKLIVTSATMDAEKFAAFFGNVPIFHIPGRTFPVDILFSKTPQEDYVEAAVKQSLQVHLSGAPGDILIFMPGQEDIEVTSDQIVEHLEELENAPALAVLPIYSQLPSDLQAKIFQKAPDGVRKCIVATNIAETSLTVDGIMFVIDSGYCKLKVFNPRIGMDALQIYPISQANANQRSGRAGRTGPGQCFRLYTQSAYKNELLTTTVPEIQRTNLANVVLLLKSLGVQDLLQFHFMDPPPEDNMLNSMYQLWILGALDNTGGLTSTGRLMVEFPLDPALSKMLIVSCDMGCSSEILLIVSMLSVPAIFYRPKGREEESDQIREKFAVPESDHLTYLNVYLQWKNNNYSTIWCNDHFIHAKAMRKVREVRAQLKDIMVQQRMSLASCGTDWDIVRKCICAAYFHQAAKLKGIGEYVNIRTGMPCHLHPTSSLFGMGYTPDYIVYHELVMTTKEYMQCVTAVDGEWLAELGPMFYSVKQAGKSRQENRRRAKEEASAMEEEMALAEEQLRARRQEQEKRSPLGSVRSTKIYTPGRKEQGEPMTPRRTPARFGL
UniProt Q15398: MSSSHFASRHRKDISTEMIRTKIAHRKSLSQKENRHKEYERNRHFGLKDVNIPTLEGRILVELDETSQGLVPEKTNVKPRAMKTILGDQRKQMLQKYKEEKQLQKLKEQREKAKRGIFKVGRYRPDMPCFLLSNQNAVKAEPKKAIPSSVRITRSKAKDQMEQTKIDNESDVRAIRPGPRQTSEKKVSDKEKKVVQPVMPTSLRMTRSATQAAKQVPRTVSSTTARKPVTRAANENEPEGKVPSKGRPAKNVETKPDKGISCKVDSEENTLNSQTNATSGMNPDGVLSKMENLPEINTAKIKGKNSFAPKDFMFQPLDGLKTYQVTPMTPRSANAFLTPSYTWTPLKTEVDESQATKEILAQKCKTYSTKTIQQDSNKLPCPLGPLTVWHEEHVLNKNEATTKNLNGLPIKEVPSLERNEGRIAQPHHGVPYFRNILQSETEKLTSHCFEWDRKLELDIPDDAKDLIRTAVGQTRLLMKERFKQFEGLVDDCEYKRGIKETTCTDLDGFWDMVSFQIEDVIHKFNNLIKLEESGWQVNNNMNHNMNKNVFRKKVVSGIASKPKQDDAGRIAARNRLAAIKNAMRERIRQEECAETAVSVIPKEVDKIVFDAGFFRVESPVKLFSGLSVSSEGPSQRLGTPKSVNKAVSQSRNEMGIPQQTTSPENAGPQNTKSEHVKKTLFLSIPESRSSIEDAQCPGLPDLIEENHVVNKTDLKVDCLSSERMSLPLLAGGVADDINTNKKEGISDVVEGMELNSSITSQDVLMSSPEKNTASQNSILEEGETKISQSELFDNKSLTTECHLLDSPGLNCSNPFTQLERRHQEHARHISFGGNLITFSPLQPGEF

What was measured:
Test in all cases: log2 fold change, soluble protein after heating vs DMSO (PISA); higher = thermal stabilisation; K562 lysate, 10 uM; active = over 0.2 and 3.5 SD of the protein, either way, in both replicates (recomputed)
[1] = compound: C=CC(=O)N1CCC[C@@H](n2nc(-c3ccc(Oc4ccccc4)cc3)c3c(N)ncnc32)C1 [ibrutinib]
Summary of the method: (§1)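 Values give the log-two fold change in thermal stability against solvent controls, from duplicates. Crude K562 extract at 1 mg/mL protein, made by dounce homogenisation in PBS pH 7.4 with 1 mM MgCl2, was treated with 10 μM compound for 30 min. After 3 min heating across 48°C-58°C, aliquots were pooled, adjusted to 0.5% NP-40 at 4°C and centrifuged at 21,000xg for 90 min. The supernatant was measured by TMTpro 16plex LC-MS/MS with channel sums equalised.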

[2] = compound: CC(=O)c1cnc2ccc(-c3cc(Cl)c(O)c(Cl)c3)nc2c1N[C@H]1CC[C@H](CN(C)C)CC1
Summary of the method: as §1

[3] = compound: CC(C)(C)Cn1c(N)nc2ccc(-c3[nH]c(C(C)(C)C)nc3-c3ccc(F)cc3)nc21 [ralimetinib]
Summary of the method: as §1

[4] = compound: CC(C)(O)CC(=O)NCCn1ccc2ncnc(Nc3ccc(Oc4cccc(C(F)(F)F)c4)c(Cl)c3)c21
Summary of the method: as §1

[5] = compound: CC(C)C1=C2N=C(C=C(N2N=C1)NCC3=CC=CC=C3)NCCCCCCN
Summary of the method: as §1

[6] = compound: CC1=C(C(CC(=O)N1)C2=CC=C(C=C2)C(F)(F)F)C(=O)NC3=C(C=C4C(=C3)C=NN4)F
Summary of the method: as §1

[7] = compound: CC1=C(C2=C(C=C1)C(=O)C3=CC=CC=C3N2CCCN)C
Summary of the method: as §1

[8] = compound: CC1=C(C=C(C=C1)NC(=O)C2=CC(=CC=C2)C(C)(C)C#N)NC3=CC4=C(C=C3)N=CN(C4=O)C
Summary of the method: as §1

[9] = compound: CC1=C(C=C(C=C1)NC(=O)C2=CC(=CC=C2)N(C)C)NC(=O)C3=CC=C(C=C3)O
Summary of the method: as §1

[10] = compound: CC1=CC=C(C=C1)SC2=C3C=C(SC3=CN=C2)C(=O)N
Summary of the method: as §1

Measured: log2 fold change

DOCK10 (UniProt Q96BY6)
inactive: [1] -0.151 | [2] 0.02 | [3] -0.001 | [4] -0.008 | [5] -0.084 | [6] -0.161 | [7] 0.008 | [8] 0.246 | [9] -0.045 | [10] 0.022

DNAH8 (UniProt Q96JB1)
inactive: [1] 0.067 | [2] -0.117 | [3] -0.001 | [4] -0.207 | [5] 0.003 | [6] -0.111 | [7] -0.04 | [8] 0.012 | [9] 0.019 | [10] -0.32

DNAJC8 (UniProt O75937)
inactive: [1] 0.015 | [2] 0.017 | [3] -0.071 | [4] 0.082 | [5] -0.026 | [6] 0.024 | [7] -0.026 | [8] -0.031 | [9] -0.006 | [10] 0.041

DNAJC12 (UniProt Q9UKB3)
inactive: [1] 0.015 | [2] -0.012 | [3] -0.009 | [4] -0.006 | [5] 0.03 | [6] 0.034 | [7] -0.036 | [8] 0.025 | [9] -0.007 | [10] -0.066

DGCR8 (UniProt Q8WYQ5)
inactive: [1] 0.031 | [2] -0.049 | [3] 0.014 | [4] -0.014 | [5] 0.015 | [6] 0.02 | [7] -0.018 | [8] -0.219 | [9] 0.071 | [10] -0.006

DHCR7 (UniProt Q9UBM7)
inactive: [1] -0.026 | [2] 0.016 | [3] 0.071 | [4] -0.042 | [5] -0.018 | [6] 0.01 | [7] -0.007 | [8] -0.017 | [9] -0.011 | [10] -0.002

DNAJC1 (UniProt Q96KC8)
inactive: [1] -0.018 | [2] 0.018 | [3] -0.007 | [4] -0.048 | [5] -0.014 | [6] 0.019 | [7] 0.019 | [8] -0.009 | [9] 0.032 | [10] 0.011

DHRS7B (UniProt Q6IAN0)
inactive: [1] -0.045 | [2] 0.069 | [3] -0.01 | [4] 0.091 | [5] 0.011 | [6] -0.055 | [7] -0.007 | [8] -0.058 | [9] -0.033 | [10] 0.042

DNAJB4 (UniProt Q9UDY4)
inactive: [1] -0.02 | [2] 0.053 | [3] -0.005 | [4] -0.014 | [5] 0.022 | [6] 0.033 | [7] 0.02 | [8] 0.001 | [9] 0.022 | [10] 0.01

DOK1 (UniProt Q99704)
inactive: [1] 0.023 | [2] 0.01 | [3] 0.017 | [4] 0.014 | [5] -0.029 | [6] 0.137 | [7] 0.018 | [8] 0.017 | [9] 0.014 | [10] -0.135

DHFR (UniProt P00374)
inactive: [1] -0.013 | [2] 0.155 | [3] -0.058 | [4] 0.016 | [5] 0.024 | [6] -0.018 | [7] -0.013 | [8] -0.029 | [9] 0.025 | [10] 0.033

DNAJC11 (UniProt Q9NVH1)
inactive: [1] -0.009 | [2] 0.008 | [3] 0.028 | [4] -0.038 | [5] -0.031 | [6] -0.008 | [7] 0.031 | [8] -0.032 | [9] 0.001 | [10] 0.021

DIS3L (UniProt Q8TF46)
inactive: [1] -0.018 | [2] -0.048 | [3] 0.023 | [4] 0.054 | [5] -0.008 | [6] 0.023 | [7] -0.083 | [8] 0.066 | [9] 0.041 | [10] 0.044

DHX38 (UniProt Q92620)
inactive: [1] -0.018 | [2] -0.036 | [3] 0.009 | [4] -0.006 | [5] -0.015 | [6] 0.011 | [7] -0.023 | [8] -0.038 | [9] 0.034 | [10] 0.016

2 records drawn at random from those above, as already listed:
DHFR (UniProt P00374)
inactive: [1] -0.013 | [2] 0.155 | [3] -0.058 | [4] 0.016 | [5] 0.024 | [6] -0.018 | [7] -0.013 | [8] -0.029 | [9] 0.025 | [10] 0.033

DIS3L (UniProt Q8TF46)
inactive: [1] -0.018 | [2] -0.048 | [3] 0.023 | [4] 0.054 | [5] -0.008 | [6] 0.023 | [7] -0.083 | [8] 0.066 | [9] 0.041 | [10] 0.044

Following part

DNAJC7 (UniProt Q99615)
inactive: [1] 0.019 | [2] 0.029 | [3] 0.04 | [4] 0.083 | [5] 0.014 | [6] -0.005 | [7] -0.002 | [8] 0.078 | [9] -0.003 | [10] 0.028

DNAJA2 (UniProt O60884)
inactive: [1] -0.014 | [2] 0.005 | [3] 0.009 | [4] -0.006 | [5] 0.009 | [6] 0.022 | [7] -0.013 | [8] 0.068 | [9] 0.022 | [10] 0.012

DHODH (UniProt Q02127)
inactive: [1] 0.014 | [2] 0.011 | [3] -0.023 | [4] -0.036 | [5] -0.043 | [6] 0.012 | [7] -0.028 | [8] 0.003 | [9] 0.007 | [10] -0.006

DONSON (UniProt Q9NYP3)
inactive: [1] 0.059 | [2] 0.002 | [3] -0.033 | [4] 0.074 | [5] -0.022 | [6] -0.071 | [7] -0.037 | [8] 0.062 | [9] -0.096 | [10] -0.013

DLST (UniProt P36957)
inactive: [1] -0.002 | [2] -0.015 | [3] -0.021 | [4] -0.027 | [5] -0.001 | [6] 0.021 | [7] -0.05 | [8] 0 | [9] 0.004 | [10] -0.015

DNAJB11 (UniProt Q9UBS4)
inactive: [1] -0.026 | [2] -0.003 | [3] 0.019 | [4] -0.005 | [5] 0.009 | [6] 0.018 | [7] 0.007 | [8] 0.011 | [9] -0.004 | [10] -0.017

DHRS7 (UniProt Q9Y394)
inactive: [1] 0.045 | [2] -0.02 | [3] 0.059 | [4] -0.052 | [5] -0.037 | [6] 0.051 | [7] -0.07 | [8] 0.023 | [9] -0.056 | [10] 0.022

DNMBP (UniProt Q6XZF7)
inactive: [1] -0.001 | [2] -0.106 | [3] 0.026 | [4] 0.003 | [5] 0.022 | [6] 0.084 | [7] -0.145 | [8] -0.029 | [9] -0.053 | [10] 0.01

DLG1 isoform 2 (UniProt Q12959)
inactive: [1] -0.009 | [2] 0.02 | [3] 0.005 | [4] -0.017 | [5] -0.018 | [6] 0.059 | [7] 0.007 | [8] 0.021 | [9] 0.036 | [10] -0.023

DMAC2L (UniProt Q99766)
inactive: [1] 0.046 | [2] -0.046 | [3] 0.037 | [4] -0.017 | [5] 0.017 | [6] 0.005 | [7] -0.018 | [8] 0.008 | [9] -0.043 | [10] -0.019

DLGAP5 (UniProt Q15398)
inactive: [1] 0.004 | [2] 0.02 | [3] -0.018 | [4] 0.005 | [5] -0.036 | [6] -0.009 | [7] -0.007 | [8] -0.012 | [9] 0.016 | [10] -0.003

DHDDS isoform 2 (UniProt Q86SQ9)
inactive: [1] 0.059 | [2] 0.029 | [3] -0.052 | [4] 0.046 | [5] -0.068 | [6] -0.082 | [7] -0.066 | [8] -0.036 | [9] 0.026 | [10] -0.035

DGAT1 (UniProt O75907)
inactive: [1] 0.12 | [2] -0.041 | [3] 0.075 | [4] -0.048 | [5] -0.017 | [6] -0.341 | [7] -0.101 | [8] -0.008 | [9] 0.044 | [10] 0.177

DNAH9 (UniProt Q9NYC9)
inactive: [1] -0.047 | [2] -0.069 | [3] 0 | [4] -0.007 | [5] -0.005 | [6] -0.043 | [7] 0.054 | [8] 0.035 | [9] -0.04 | [10] -0.061

DMAP1 (UniProt Q9NPF5)
inactive: [1] 0.213 | [2] 0.059 | [3] 0.052 | [4] -0.019 | [5] 0.029 | [6] 0.145 | [7] -0.012 | [8] 0.049 | [9] 0.042 | [10] 0.029
